Laboratory results: the supplement of paper PMC10849652
The list shows a part of the results.

The chains behind the UniProt entries cited, without tags or fusion partners. Where a name states a change or a piece, a line headed by the entry shows the natural chain unless it says otherwise.
UniProt Q9NP97, whole entry, looked up: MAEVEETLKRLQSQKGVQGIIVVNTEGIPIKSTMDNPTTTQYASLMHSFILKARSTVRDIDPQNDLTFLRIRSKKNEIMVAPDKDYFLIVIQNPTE
UniProt Q96F86: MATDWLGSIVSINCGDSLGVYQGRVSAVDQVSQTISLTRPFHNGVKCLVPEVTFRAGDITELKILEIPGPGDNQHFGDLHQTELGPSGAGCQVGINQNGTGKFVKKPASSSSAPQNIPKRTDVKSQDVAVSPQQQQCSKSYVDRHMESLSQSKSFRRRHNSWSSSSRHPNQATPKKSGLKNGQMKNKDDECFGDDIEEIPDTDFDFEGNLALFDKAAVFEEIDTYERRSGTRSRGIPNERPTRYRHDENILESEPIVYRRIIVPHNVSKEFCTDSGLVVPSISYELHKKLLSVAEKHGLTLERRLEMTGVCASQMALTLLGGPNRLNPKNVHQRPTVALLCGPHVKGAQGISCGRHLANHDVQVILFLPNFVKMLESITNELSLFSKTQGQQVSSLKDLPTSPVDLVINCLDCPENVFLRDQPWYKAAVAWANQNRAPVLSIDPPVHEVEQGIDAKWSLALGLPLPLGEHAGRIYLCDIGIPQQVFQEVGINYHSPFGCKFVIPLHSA
UniProt Q8TEA8: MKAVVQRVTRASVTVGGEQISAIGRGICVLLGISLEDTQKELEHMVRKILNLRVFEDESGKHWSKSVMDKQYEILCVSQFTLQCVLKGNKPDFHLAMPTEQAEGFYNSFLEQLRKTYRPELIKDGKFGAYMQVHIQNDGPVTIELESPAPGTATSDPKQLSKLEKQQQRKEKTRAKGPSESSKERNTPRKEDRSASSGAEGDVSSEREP
UniProt Q92784, whole entry, looked up: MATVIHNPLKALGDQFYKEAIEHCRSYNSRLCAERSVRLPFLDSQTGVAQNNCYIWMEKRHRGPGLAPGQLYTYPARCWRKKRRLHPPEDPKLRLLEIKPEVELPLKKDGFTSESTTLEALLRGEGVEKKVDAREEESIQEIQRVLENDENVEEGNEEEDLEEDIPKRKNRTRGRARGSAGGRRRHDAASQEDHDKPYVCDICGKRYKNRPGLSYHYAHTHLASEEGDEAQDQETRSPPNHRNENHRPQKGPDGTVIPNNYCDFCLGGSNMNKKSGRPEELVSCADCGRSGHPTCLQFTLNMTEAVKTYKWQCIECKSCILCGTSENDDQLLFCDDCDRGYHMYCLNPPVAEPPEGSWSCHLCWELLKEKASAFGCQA
UniProt P47813, whole entry, looked up: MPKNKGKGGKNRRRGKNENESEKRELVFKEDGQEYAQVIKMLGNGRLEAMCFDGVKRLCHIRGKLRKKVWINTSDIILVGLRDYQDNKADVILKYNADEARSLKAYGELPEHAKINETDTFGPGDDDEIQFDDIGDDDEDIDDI
UniProt Q92611: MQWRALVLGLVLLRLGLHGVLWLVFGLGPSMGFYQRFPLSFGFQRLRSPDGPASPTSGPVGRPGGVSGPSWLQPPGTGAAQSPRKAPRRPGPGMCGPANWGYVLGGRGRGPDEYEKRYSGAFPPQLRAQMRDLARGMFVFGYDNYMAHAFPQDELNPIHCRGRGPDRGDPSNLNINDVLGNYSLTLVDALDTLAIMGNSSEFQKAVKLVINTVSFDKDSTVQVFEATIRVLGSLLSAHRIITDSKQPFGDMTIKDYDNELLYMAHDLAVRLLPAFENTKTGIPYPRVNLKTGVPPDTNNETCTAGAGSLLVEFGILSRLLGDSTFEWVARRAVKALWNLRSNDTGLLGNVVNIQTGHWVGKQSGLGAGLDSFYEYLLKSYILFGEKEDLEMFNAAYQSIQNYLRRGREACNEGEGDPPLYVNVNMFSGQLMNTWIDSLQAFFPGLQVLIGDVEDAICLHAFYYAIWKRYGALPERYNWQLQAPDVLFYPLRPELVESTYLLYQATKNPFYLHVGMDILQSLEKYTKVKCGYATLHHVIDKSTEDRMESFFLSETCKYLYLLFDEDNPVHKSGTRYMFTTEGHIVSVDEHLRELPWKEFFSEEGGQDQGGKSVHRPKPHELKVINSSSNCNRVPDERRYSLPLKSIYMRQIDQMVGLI
UniProt Q15029: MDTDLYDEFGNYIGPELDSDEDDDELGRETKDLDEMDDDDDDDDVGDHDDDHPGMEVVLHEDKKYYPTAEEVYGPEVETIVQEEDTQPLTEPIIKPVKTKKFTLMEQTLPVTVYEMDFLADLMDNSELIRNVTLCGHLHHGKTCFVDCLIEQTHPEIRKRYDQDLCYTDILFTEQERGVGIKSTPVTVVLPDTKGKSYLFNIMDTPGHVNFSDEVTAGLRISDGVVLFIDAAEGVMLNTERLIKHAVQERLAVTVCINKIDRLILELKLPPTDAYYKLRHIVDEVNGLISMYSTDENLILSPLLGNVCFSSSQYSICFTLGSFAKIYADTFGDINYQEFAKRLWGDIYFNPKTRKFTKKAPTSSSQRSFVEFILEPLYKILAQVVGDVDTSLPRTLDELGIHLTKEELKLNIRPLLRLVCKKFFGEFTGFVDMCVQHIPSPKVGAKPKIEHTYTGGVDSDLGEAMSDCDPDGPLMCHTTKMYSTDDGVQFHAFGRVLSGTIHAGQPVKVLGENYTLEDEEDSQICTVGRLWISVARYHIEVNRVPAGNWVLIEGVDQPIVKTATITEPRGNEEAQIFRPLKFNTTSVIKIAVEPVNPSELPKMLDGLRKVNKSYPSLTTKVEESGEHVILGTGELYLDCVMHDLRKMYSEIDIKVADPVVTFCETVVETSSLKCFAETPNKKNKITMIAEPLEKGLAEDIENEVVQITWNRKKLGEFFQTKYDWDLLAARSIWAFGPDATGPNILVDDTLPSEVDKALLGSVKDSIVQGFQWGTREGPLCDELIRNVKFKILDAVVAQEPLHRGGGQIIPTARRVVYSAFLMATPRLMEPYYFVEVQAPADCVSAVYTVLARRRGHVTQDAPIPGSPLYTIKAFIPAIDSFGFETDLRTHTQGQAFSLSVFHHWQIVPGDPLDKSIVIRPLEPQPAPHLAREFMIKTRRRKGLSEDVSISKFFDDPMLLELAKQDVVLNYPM
UniProt O00418: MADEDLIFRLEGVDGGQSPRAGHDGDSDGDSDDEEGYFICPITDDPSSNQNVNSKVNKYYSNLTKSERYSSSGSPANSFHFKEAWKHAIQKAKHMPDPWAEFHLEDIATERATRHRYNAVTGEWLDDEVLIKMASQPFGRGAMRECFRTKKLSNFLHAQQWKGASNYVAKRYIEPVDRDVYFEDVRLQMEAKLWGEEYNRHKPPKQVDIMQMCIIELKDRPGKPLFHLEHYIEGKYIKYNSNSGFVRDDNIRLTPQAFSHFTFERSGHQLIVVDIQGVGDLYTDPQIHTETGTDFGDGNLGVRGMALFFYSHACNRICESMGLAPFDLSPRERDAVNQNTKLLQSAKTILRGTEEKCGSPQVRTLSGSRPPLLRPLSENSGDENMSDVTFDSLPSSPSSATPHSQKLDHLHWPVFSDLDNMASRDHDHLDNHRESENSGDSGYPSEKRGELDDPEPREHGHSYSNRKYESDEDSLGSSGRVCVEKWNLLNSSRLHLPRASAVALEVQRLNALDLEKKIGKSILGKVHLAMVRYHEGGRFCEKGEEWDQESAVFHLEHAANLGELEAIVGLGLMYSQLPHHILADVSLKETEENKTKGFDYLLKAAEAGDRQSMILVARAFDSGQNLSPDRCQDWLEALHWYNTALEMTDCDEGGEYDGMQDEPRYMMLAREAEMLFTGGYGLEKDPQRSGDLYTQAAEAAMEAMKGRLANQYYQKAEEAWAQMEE
UniProt Q8N6R0: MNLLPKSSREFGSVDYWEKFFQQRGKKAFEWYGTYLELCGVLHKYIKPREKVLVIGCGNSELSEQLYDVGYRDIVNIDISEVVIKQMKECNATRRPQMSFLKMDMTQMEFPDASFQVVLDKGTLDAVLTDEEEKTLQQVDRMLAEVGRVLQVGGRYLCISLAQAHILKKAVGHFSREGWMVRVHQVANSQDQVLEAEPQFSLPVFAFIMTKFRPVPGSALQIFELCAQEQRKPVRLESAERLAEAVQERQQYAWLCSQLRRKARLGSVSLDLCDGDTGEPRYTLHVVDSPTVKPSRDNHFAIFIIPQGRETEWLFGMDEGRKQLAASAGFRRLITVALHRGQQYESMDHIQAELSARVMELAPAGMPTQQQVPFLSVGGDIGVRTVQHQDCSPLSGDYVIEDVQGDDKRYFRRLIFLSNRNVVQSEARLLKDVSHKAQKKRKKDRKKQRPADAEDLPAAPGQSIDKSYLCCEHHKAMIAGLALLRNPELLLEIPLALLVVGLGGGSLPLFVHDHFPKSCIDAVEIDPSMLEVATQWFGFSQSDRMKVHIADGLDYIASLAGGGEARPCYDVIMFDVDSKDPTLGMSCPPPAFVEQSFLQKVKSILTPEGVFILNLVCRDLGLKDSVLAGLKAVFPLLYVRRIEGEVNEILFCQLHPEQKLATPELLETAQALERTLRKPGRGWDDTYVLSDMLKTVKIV
UniProt O77932: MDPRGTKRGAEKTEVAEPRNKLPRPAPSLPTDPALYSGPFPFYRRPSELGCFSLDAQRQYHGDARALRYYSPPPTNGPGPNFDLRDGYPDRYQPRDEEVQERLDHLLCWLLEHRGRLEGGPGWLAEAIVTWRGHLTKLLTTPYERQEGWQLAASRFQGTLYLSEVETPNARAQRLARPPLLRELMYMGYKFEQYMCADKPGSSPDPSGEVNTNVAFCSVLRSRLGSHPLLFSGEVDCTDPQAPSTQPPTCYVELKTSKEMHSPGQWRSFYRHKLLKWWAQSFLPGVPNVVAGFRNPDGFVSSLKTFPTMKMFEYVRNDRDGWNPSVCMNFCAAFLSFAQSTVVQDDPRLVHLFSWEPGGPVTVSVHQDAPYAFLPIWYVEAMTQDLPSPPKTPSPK
UniProt Q7L8W6: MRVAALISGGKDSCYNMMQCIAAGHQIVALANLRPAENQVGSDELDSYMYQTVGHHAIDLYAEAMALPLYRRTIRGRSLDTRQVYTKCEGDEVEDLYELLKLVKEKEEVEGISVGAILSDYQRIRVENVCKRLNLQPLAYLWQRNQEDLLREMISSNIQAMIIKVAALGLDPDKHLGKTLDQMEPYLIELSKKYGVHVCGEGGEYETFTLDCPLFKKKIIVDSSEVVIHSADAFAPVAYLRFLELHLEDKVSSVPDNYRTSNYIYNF
UniProt Q8N3D4: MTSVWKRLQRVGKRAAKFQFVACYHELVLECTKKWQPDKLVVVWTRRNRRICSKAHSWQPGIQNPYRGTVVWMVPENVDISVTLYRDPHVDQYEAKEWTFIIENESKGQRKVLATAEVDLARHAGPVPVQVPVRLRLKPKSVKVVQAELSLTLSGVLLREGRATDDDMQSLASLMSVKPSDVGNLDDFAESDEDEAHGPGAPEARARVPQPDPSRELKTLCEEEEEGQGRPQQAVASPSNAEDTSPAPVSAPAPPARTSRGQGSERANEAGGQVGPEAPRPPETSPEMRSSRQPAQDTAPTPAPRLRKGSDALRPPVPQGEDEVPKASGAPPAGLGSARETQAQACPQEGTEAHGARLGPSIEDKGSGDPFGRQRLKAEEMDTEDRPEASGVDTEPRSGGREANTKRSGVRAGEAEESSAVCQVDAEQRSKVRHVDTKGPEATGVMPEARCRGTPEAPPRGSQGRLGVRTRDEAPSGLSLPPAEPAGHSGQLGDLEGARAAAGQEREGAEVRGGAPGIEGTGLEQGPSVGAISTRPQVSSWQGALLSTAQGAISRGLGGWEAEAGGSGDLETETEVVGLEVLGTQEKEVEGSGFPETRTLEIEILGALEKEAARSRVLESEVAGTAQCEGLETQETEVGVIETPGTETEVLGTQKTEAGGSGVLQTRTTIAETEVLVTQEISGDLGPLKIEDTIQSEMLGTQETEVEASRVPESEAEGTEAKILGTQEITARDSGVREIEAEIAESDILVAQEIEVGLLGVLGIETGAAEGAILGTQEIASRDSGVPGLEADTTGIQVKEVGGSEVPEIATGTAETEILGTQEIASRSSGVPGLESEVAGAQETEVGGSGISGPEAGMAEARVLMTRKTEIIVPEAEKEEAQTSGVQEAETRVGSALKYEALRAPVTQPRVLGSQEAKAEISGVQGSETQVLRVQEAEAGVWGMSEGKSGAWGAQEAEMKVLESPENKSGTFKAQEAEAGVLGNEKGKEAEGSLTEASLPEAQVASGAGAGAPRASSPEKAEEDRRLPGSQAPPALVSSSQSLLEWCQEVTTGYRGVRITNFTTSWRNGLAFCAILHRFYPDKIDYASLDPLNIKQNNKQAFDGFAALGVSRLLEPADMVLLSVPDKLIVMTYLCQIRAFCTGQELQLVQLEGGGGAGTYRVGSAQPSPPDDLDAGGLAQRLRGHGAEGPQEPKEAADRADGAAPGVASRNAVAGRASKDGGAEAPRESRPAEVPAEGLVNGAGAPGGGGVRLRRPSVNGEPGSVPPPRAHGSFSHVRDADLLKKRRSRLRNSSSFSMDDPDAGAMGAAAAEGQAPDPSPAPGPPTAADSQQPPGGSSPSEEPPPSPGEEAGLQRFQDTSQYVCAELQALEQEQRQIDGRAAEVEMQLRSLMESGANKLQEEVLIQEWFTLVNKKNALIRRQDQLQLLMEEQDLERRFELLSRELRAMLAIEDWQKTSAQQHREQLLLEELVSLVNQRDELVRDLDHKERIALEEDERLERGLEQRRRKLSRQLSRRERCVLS

Experiments:
Assay in all cases: log2 fold change, soluble protein after heating vs DMSO (PISA); higher = thermal stabilisation; K562 lysate, 10 uM; active = over 0.2 and 3.5 SD of the protein, either way, in both replicates (recomputed)
[1] = compound: C1=CC=C(C=C1)[C@H](COC2=CC3=C(C=C2)NC(=O)N3)NC(=O)C4=CC=CN(C4=O)CC5=CC(=C(C=C5)F)F
Summary of the method: (§1)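 Soluble protein was defined as the supernatant remaining after 21,000xg for 90 min, following pooling of heated aliquots and adjustment to 0.5% NP-40 at 4°C. Before that, crude K562 extract at 1 mg/mL protein in PBS pH 7.4 with 1 mM MgCl2 was treated with 10 μM compound for 30 min and heated for 3 min across 48°C-58°C. Quantification used TMTpro 16plex LC-MS/MS with channel sums equalised, and values are log-two fold changes in thermal stability relative to solvent controls from duplicates.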

[2] = compound: CC1=C(SC2=C1C(=N[C@H](C3=NN=C(N32)C)CC(=O)N)C4=CC=C(C=C4)Cl)C
Summary of the method: as §1

[3] = compound: CC1=C2C(=CC=C1)N=C(N(C2=O)C3=CC=CC=C3C)CN4C=NC5=C(N=CN=C54)N
Summary of the method: as §1

[4] = compound: Cc1sc2c(c1C)C(c1ccc(Cl)cc1)=N[C@@H](CC(=O)OC(C)(C)C)c1nnc(C)n1-2
Summary of the method: as §1

[5] = compound: c1ccc([C@@H]2C[C@H]2NC2CCNCC2)cc1
Summary of the method: as §1

Measured: log2 fold change

EDC4 (UniProt Q6P2E9)
inactive: [1] -0.026 | [2] 0.005 | [3] 0.027 | [4] 0.008 | [5] 0.011

DYNC1I2 isoform 2 (UniProt Q13409)
inactive: [1] -0.011 | [2] 0.253 | [3] -0.005 | [4] 0.082 | [5] 0.155

DYNLRB1 (UniProt Q9NP97)
inactive: [1] 0.083 | [2] -0.003 | [3] -0.034 | [4] -0.019 | [5] 0.071

EDC3 (UniProt Q96F86)
inactive: [1] 0.036 | [2] 0 | [3] 0.028 | [4] 0.031 | [5] 0.008

DTD1 (UniProt Q8TEA8)
inactive: [1] 0.015 | [2] -0.023 | [3] -0.02 | [4] -0.039 | [5] -0.017

DTL (UniProt Q9NZJ0)
inactive: [1] 0.033 | [2] 0.038 | [3] 0.089 | [4] -0.032 | [5] -0.01

DPF3 isoform 3 (UniProt Q92784)
inactive: [1] -0.064 | [2] 0.165

EDRF1 (UniProt Q3B7T1)
inactive: [1] 0.026 | [2] 0.061 | [3] -0.04 | [4] -0.013 | [5] 0.009

EEF1A1, A0A087WVQ9
inactive: [1] -0.053 | [2] 0.093 | [3] -0.042 | [4] -0.001 | [5] 0.049

EIF1AX (UniProt P47813)
inactive: [1] -0.005 | [2] -0.023 | [3] 0.034 | [4] 0.014 | [5] 0.004

EGLN1 (UniProt Q9GZT9)
inactive: [1] 0.095 | [2] -0.023 | [3] -0.01 | [4] -0.038 | [5] -0.007

EHMT2 (UniProt A2ABF8)
inactive: [1] 0.037 | [2] 0.007 | [3] 0.019 | [4] 0.029 | [5] 0.012

EBAG9 isoform 2 (UniProt O00559)
inactive: [1] 0.01 | [2] -0.067 | [3] -0.001 | [4] -0.168 | [5] -0.065

EI24 (UniProt O14681)
inactive: [1] 0.011 | [2] -0.012 | [3] -0.036 | [4] -0.026 | [5] 0.111

EEF1D isoform 3 (UniProt P29692)
inactive: [1] -0.068 | [2] 0.113

EEF1D isoform 2 (UniProt P29692)
inactive: [1] -0.015 | [2] 0.014 | [3] 0.014 | [4] -0.013 | [5] -0.089

EEF1A2 (UniProt Q05639)
inactive: [1] -0.02 | [2] -0.001 | [3] 0.009 | [4] 0.016 | [5] 0.017

DPF2 (UniProt Q92785)
inactive: [1] -0.011 | [2] 0.02 | [3] -0.031 | [4] 0.079 | [5] 0.032

EDEM1 (UniProt Q92611)
inactive: [1] 0.009 | [2] 0 | [3] -0.083 | [4] 0.008 | [5] 0.01

DROSHA (UniProt Q9NRR4)
inactive: [1] -0.113 | [2] 0.158 | [3] -0.004 | [4] -0.11 | [5] 0.077

EFTUD2 (UniProt Q15029)
inactive: [1] 0.014 | [2] -0.012 | [3] -0.009 | [4] 0.028 | [5] 0.019

EDARADD (UniProt Q8WWZ3)
inactive: [1] 0.074 | [2] -0.088 | [3] -0.032 | [4] -0.037 | [5] 0.064

DSN1 (UniProt Q9H410)
inactive: [1] -0.012 | [2] 0.053 | [3] 0.019 | [4] -0.013 | [5] 0.02

DSG2 (UniProt Q14126)
inactive: [1] 0.036 | [2] 0.014 | [3] -0.02 | [4] -0.034 | [5] -0.029

EFHD2 (UniProt Q96C19)
inactive: [1] 0.035 | [2] 0.04 | [3] -0.01 | [4] -0.037 | [5] -0.015

DUSP23 (UniProt Q9BVJ7)
inactive: [1] -0.164 | [2] -0.001 | [3] 0.033 | [4] 0.003 | [5] -0.072

EEF2K (UniProt O00418)
inactive: [1] -0.018 | [2] 0 | [3] -0.026 | [4] -0.018 | [5] 0.023

ECH1 (UniProt Q13011)
inactive: [1] -0.059 | [2] 0.008 | [3] -0.006 | [4] -0.026 | [5] 0.012

DTD2 (UniProt Q96FN9)
inactive: [1] -0.067 | [2] 0.278 | [3] -0.103 | [4] 0.123 | [5] -0.096

EIF2A (UniProt Q9BY44)
inactive: [1] 0 | [2] 0.018 | [3] -0.012 | [4] 0.008 | [5] -0.027

ECI1 (UniProt P42126)
inactive: [1] 0.005 | [2] 0.007 | [3] -0.039 | [4] 0.014 | [5] 0.007

DPF1 isoform 2 (UniProt Q92782)
inactive: [1] 0.058 | [2] 0.093 | [3] -0.081 | [4] 0.124

EED, A0A5F9ZI63
inactive: [1] 0.022 | [2] -0.01 | [3] 0.027 | [4] -0.007 | [5] -0.011

DR1 (UniProt Q01658)
inactive: [1] 0.019 | [2] 0.031 | [3] -0.044 | [4] 0.001 | [5] -0.033

DUT (UniProt H0YMP1)
inactive: [1] -0.232 | [2] 0.259

DST (UniProt Q03001)
inactive: [1] -0.002 | [2] 0.042 | [3] 0.111 | [4] -0.061 | [5] -0.077

DPY19L3 (UniProt Q6ZPD9)
inactive: [1] 0.183 | [2] -0.131 | [3] -0.106

EHD4 (UniProt Q9H223)
inactive: [1] -0.033 | [2] 0.007 | [3] 0.042 | [4] 0.036 | [5] 0.06

DUS1L (UniProt Q6P1R4)
inactive: [1] 0.001 | [2] 0.067 | [3] 0.01 | [4] 0.077 | [5] -0.014

EEF1AKNMT (UniProt Q8N6R0)
inactive: [1] -0.012 | [2] -0.073 | [3] 0.013 | [4] 0.018 | [5] 0.042

DXO (UniProt O77932)
inactive: [1] -0.074 | [2] 0.13 | [3] 0.035 | [4] 0.011 | [5] 0.108

EFR3A (UniProt Q14156)
inactive: [1] -0.196 | [2] 0.133 | [3] 0.031 | [4] -0.018 | [5] 0.129

EEF1G isoform 2 (UniProt P26641)
inactive: [1] -0.016 | [2] -0.017 | [3] -0.029 | [4] 0.096 | [5] 0.056

DYRK1A (UniProt Q13627)
inactive: [1] -0.019 | [2] 0.003 | [3] -0.014 | [4] 0.019 | [5] 0.031

DPH6 (UniProt Q7L8W6)
inactive: [1] 0.01 | [2] -0.003 | [3] 0.048 | [4] 0.052 | [5] 0.046

DPH5 isoform 5 (UniProt Q9H2P9)
inactive: [1] 0.047 | [2] -0.024 | [3] 0.021 | [4] -0.144 | [5] -0.118

EHD1 (UniProt Q9H4M9)
inactive: [1] -0.023 | [2] 0.009 | [3] 0.009 | [4] -0.034 | [5] 0.072

Four consecutive records from above:
ECI1 (UniProt P42126)
inactive: [1] 0.005 | [2] 0.007 | [3] -0.039 | [4] 0.014 | [5] 0.007

DPF1 isoform 2 (UniProt Q92782)
inactive: [1] 0.058 | [2] 0.093 | [3] -0.081 | [4] 0.124

EED, A0A5F9ZI63
inactive: [1] 0.022 | [2] -0.01 | [3] 0.027 | [4] -0.007 | [5] -0.011

DR1 (UniProt Q01658)
inactive: [1] 0.019 | [2] 0.031 | [3] -0.044 | [4] 0.001 | [5] -0.033

Later entries.

DSTN (UniProt P60981)
inactive: [1] 0.043 | [2] -0.051 | [3] -0.016 | [4] 0.018 | [5] -0.06

EEFSEC (UniProt P57772)
inactive: [1] -0.033 | [2] -0.003 | [3] 0.009 | [4] -0.003 | [5] 0.015

ECM1 isoform 4 (UniProt Q16610)
inactive: [1] -0.012 | [2] -0.005 | [3] 0.021 | [4] -0.027 | [5] -0.007

EHBP1L1 (UniProt Q8N3D4)
inactive: [1] 0.002 | [2] 0.004 | [3] 0.009 | [4] -0.009 | [5] -0.01

DSC2 (UniProt Q02487)
inactive: [1] -0.079 | [2] 0.009 | [3] -0.092 | [4] -0.053 | [5] -0.01

DYSF isoform 13 (UniProt O75923)
inactive: [1] -0.047 | [2] -0.021 | [3] -0.067 | [4] -0.03 | [5] 0.034

DPH3 (UniProt Q96FX2)
inactive: [1] -0.064 | [2] -0.001 | [3] 0.086 | [4] -0.031 | [5] -0.091

DPP9 isoform 2 (UniProt Q86TI2)
inactive: [1] 0.015 | [2] -0.001 | [3] -0.018 | [4] 0.012 | [5] 0.025
